Screen size: about 52,000 sequences; about 210 (0.4%) were called active.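 Rule for the calls: active = gene whose silencing raises cell survival under the drug, median off-target-corrected z-score across its silencing RNAs 2 or more; inactive = the rest.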 Some of the results follow.

The nature of this experiment: Resistance to Poly (ADP-Ribose) Polymerase inhibitor: Gene Identification via Genome-wide siRNA Screen. The following applies: mouse BRCA2 R2336H ES cells, olaparib, CellTiter-Glo viability; stronger effect = higher value. The essentials:
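Genome-wide siRNA screen (3 siRNAs/gene, 20 nM) in mouse ES cells carrying hypomorphic BRCA2 R2336H; olaparib 500 nM added 48 h post-transfection, CellTiter-Glo viability 72 h later. Normalized to plate-median negative control; MAD z-scores, gene median, seed-adjusted.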
(In general: ATP-based viability assays read luminescence as a measure of living cells.)
Turning to GGUUUUCCAAGGUGGGCAUTT against Rp1hl1, the z-score was inactive: -1.94.

In the case of GGAAUUGCUAUCUUUUGCATT against Itm1, the z-score is inactive: 0.168.

On to CCUAGUGACUUUAAUGGGATT against Mrgprf, for which the z-score is inactive: 0.248.

Turning to “GCAUAUAACCGAGUUGAUUTT against E030027H19Rik”, the z-score was inactive: 0.696.

Take GGUACUUCCUACCUAACAGTT against Nipa1: the z-score was inactive: 0.411.

With CGACCUAAUGACAUUAUCATT against Egln3, the z-score is inactive: 0.342.

As to “GGACCUCUUCAAAACCACCTT against E230022H04Rik”, the z-score is inactive: -0.472.

As for GGUGGAAAUCGAUAAAACUTT against Slc15a1, the z-score is inactive: -0.613.

On to GGAUGAAUACAGUGAAUAUTT against Ppil3, for which the z-score is inactive: -0.727.

On to GGAAACCUUUUCAUUAACATT against Il23r, for which the z-score is inactive: -0.0443.

Consider CCGUGUGAAUCCCUGCAUUTT against Aldoa, for which the z-score is inactive: -2.07.

As to GCACAUAUGUCUUUCCCAGTT against Fbxl7, the z-score is inactive: 3.72.

Take GGAGUUGAAGAGAAGCAGGTT against Tac4: the z-score is inactive: -1.65.

For GCGAGCCAAGUUUGAACUUTT against Elovl6, the z-score is inactive: -0.4.

Consider GGCUCAAGAUAUCUAAGUATT against Olfr656, for which the z-score is inactive: 1.38.

For GGCCUUCAGUCCAUUUUUCTT against Sms, the z-score is inactive: -0.0935.

With GGAGAGGACAGAAAGCAAATT against Gpr24, the z-score was inactive: 2.03.

Turning to UCACAAUGGAUAUUUACCUTT against Olfr693, the z-score was inactive: 0.636.

GGGAAUGUGUUCAAAAACATT against Rpl19: the z-score was inactive: -3.12.

In the case of CGAGGGCUACCUCAACAACTT against Syngr1, the z-score is inactive: 0.539.

Turning to “GGAAGAUGACAAGUUGAUCTT against 4930422J18Rik”, the z-score was inactive: 0.306.

On to CGAAAGAGAUGAUGAUAAUTT against Arrdc3, for which the z-score is inactive: -0.117.

As to GGCCUUGUAUGAAUUAUUUTT against Sqle, the z-score is inactive: 0.519.

Turning to GCCUCGAUGCAAGAUGAUGTT against Tmem24, the z-score is inactive: -0.358.

GGAGUUCAAUUCAUUGCCATT against Ptpre: the z-score was inactive: 0.918.

Consider “GCACCAUACCUACCACAUATT against 1110034C04Rik”, for which the z-score is inactive: -0.91.

Turning to CAACACUGCCUCUUGCACATT against V1rh6, the z-score is inactive: 1.21.

On to GCCUACGUGAAAUCUCACATT against Lmyc1, for which the z-score was inactive: 1.72.

As for GCCAGUUGAAACCUAAACATT against Slc35d2, the z-score is inactive: 0.0786.

Turning to GGAAAUCUCAGGUGAGGUCTT against Mclc, the z-score was inactive: -1.73.

Turning to GGAAAUAGUCAAAAGCUAUTT against Gpc5, the z-score is inactive: -0.0312.

With GGUUCUGCCAUGGAGGAAUTT against Svs5, the z-score was inactive: -1.01.

Regarding GGGAGUCCCUGUGCUUAUATT against Arl4, the z-score is inactive: -1.44.

Take CCUAAUAGAUGAAUCCAAUTT against Prg: the z-score is inactive: 1.1.

With GCUGAGAUAAGAAGUUUAATT against H2afy2, the z-score is inactive: 0.98.

“GGAUGCUACAAAUUCACCUTT against 1810029B16Rik”: the z-score was inactive: -0.635.

In the case of GGAACAGCUAAAGUUGGGATT against Kcnj9, the z-score was inactive: 0.597.

Take “GGGUAUUUUGACAAUUUGGTT against 9430095K15Rik”: the z-score was inactive: 0.348.

Regarding “GCAUCAAUGGGCUAUUGAUTT against C030018L16Rik”, the z-score is inactive: -0.45.

As to GGAGAAGAUCAAGAUGUUCTT against AL024210, the z-score was inactive: 0.786.

With GGCCCAGAUUGACCAGUAUTT against Rtn2, the z-score is inactive: -2.05.

Regarding CCCUUUAUACCUUUGUGUATT against Stat5a, the z-score was inactive: 0.602.

GGCUUACCAACAGCAAACATT against Fzd1: the z-score is inactive: 0.56.

Regarding GGAGUUUGAACAAGAAAUATT against Prss12, the z-score is inactive: 0.182.

On to GGUGUGUGAAAUCACUCACTT against BC019806, for which the z-score was inactive: 0.312.

On to GGACUGUGCAACUUUGUGGTT against Timp3, for which the z-score was inactive: 0.205.

With GGAGUAGCAUCAAUGUUUATT against Ebpl, the z-score is inactive: -0.106.

GGAUUUUUAACCAAAGGAATT against Gnpnat1: the z-score is inactive: -0.323.

Turning to GCUUGGAAUAUAGGUUAUATT against DXImx39e, the z-score was inactive: -1.8.

For the sequence CCGAUUCAUUGAGUCUGGGTT against Lfng, the z-score was inactive: 0.762.

For the sequence GGUUUCAGGUGGACUUCCATT against Lgals12, the z-score was inactive: -0.443.

Consider GGUAGAAGACAUUCAGAUGTT against Nr4a2, for which the z-score is inactive: 0.377.

As for CCAUUUGUAACAUGAUAGCTT against Ctss, the z-score was inactive: 0.57.

For the sequence GGAAGUCAAGAAAGUGGCCTT against H1f0, the z-score was inactive: 0.618.

“CCUAAGAACCCUGAUCCUATT against A030005L19Rik”: the z-score is inactive: 0.67.

Turning to GCCAAGAGGACAUUUGGCATT against Kif24, the z-score was inactive: 0.147.

For the sequence CCCUCAUAGUAACAGGAUGTT against MGC68323, the z-score was inactive: 0.759.

For “GCACAAAUGGCACUAUUGATT against D19Ertd386e”, the z-score was inactive: 0.133.

Turning to CCCUCAAGAAUAUUUAACCTT against Smarcc1, the z-score was inactive: -0.562.

In the case of GGAGAUGCUAGAAAUUGUGTT against Hpca, the z-score is inactive: 1.1.

Turning to GCCCAGGCAAAAUAAGGAGTT against Itpkc, the z-score was inactive: -0.134.

Turning to “GCUUUAGGUAUGGUCCUAATT against A430072C10Rik”, the z-score is inactive: -0.143.

GCCAAAUAUUGCUUUGUUGTT against Gadd45a: the z-score is inactive: -0.341.

Take GGAGCAUUAUGCUUUGUGGTT against Mgat1: the z-score is inactive: -0.912.

For “GGCCUUUGCACGUGGAUUGTT against B230312I18Rik”, the z-score is inactive: 1.55.

GGUAGCAGUUGGACCUAAUTT against Set7: the z-score was inactive: 0.789.

Consider CCUAUAAAGCUCUAAAGGATT against Gpiap1, for which the z-score was inactive: -0.324.

In the case of GCUUGUGCUGAAUUACACCTT against Vps35, the z-score is inactive: 0.462.

As to GGAUGAGUCUUUAGAAGAATT against MGC91194, the z-score was inactive: -2.02.

As for “GCCUCAACAUGAUCCCGAGTT against 1700011F14Rik”, the z-score is inactive: 2.64.

With GCAUUGUUAGUACUUAGCUTT against V1ri10, the z-score is inactive: -0.167.

Take “GGACGAGUACUGCUACAAUTT against 1500003O22Rik”: the z-score was inactive: -0.637.

In the case of GGAUCCAGACUUAAGCUUATT against BC021513, the z-score is inactive: 0.466.

As to “CGCCGACAGAGUUCAGAAATT against 4930555I21Rik”, the z-score was inactive: 2.34.

As to GCUGAUCAUCCGUUUCACUTT against Hdc, the z-score is inactive: -0.487.

Take GGGUGUUCGUUAGUCCUCUTT against Dlat: the z-score was inactive: 2.44.

On to “GGUUCUUUGGAAUGCUUUUTT against 2900073G15Rik”, for which the z-score was inactive: 3.49.

Regarding GGUCUAUCCUACAGCUGAGTT against Prlpc2, the z-score is inactive: 1.2.

On to CCAAGUGCUCAGCUAAACUTT against Gm397, for which the z-score was inactive: -1.71.

As to GGAAAAGGUUAAACUUUGATT against Cenpc1, the z-score was inactive: -0.514.

Turning to GGAGGAGCAGGAACAGUAUTT against B3gnt6, the z-score was inactive: -0.875.

For CGGGAUGUCAAAGUGUCAUTT against Tmem14a, the z-score was inactive: 0.504.

Turning to “GGAAUUCGUAAAGAUUGCATT against 9530027K23Rik”, the z-score is inactive: 0.157.

Take “GGAGGAGGCUGACUACUUUTT against 6530404F10Rik”: the z-score was inactive: 0.431.

In the case of GCCAAGAAAGAAGGCGUAUTT against Cox6c, the z-score is inactive: 0.618.

Regarding “GGCACUUGAACAGAGUAGUTT against 4930513F16Rik”, the z-score was inactive: -0.288.

As to GCUGGCUUUGAUUUAUGGATT against Prkar1a, the z-score was inactive: -0.891.

Consider GGAAAUGGCAAAUUCAACUTT against Cspg2, for which the z-score is inactive: 0.952.

For GCACAACGUAAAAACAUCATT against Cova1, the z-score is inactive: 2.33.

With CCGAAAUAAGGCUAGCUCATT against Rfxdc1, the z-score is inactive: 1.33.

Turning to “GGACAGGAAGAAAAGAAACTT against 4930518C23Rik”, the z-score is inactive: -0.455.

As for GUAUUGUCAUCAUCAUUUCTT against Olfr910, the z-score is inactive: 0.581.

Turning to GGAAUGACUUUUGAGACAGTT against Cyp1a1, the z-score was inactive: 1.69.

For the sequence “GGUUCAGAUGUCUGAUAAATT against 4833420N02Rik”, the z-score was inactive: 1.61.

In the case of “GGGAACGCAACAUUUCUCCTT against 1810049H13Rik”, the z-score was inactive: -1.2.

With GGAUGACUCAAUAUUUGUCTT against V1rb8, the z-score was inactive: -0.511.

On to GGACUCAUUGUCUUUAACATT against Amy1, for which the z-score was inactive: -1.38.

Take “GGAGCUGUGGGAGAAGAACTT against 5730469M10Rik”: the z-score is inactive: 0.428.

For the sequence GCUUAAUGAAUCAUCGGUUTT against Itga3, the z-score was inactive: -0.285.

As to “GCGAGAGUGAAAACAUCCATT against C030014K22Rik”, the z-score is inactive: -1.01.

For the sequence “CGAGCUGGAUCUGUUUAGATT against 2510027N19Rik”, the z-score was inactive: 0.014.

As to GGAGUUUGGAACAAGAGAUTT against Prkcsh, the z-score is inactive: -0.737.

Turning to GGUUUAAAAUAGGUUUGGATT against AI597479, the z-score was inactive: 0.0989.

As for GCCGUACGAAAAAUAAGCATT against Rps7, the z-score is inactive: -2.37.

The values are drawn from PubChem BioAssay AID1347423 (Functional Genomics Laboratory (NCATS/FGL), 2020).
